Test results from PubChem BioAssay AID272 (DTP/NCI, 2004).
The list is a part of this screen's results and no random one: it gathers tests that were run many times, whatever their T/C, doses with no T/C, and many T/C values between a quarter and a half above the control. Further doses and runs are listed elsewhere. T/C: endpoint of the treated group in % of that of the vehicle group. Some entries give survivors of the animals treated and no T/C: the source files T/C as zero there, which appears to mark a toxic dose or a test without result, not a measured value. Some survivor counts are full or nearly so, which does not show that the dose was tolerated: the source hardly ever lists a survival T/C far under the control, and the zero likely stands for such cases as well. Counts of survivors are from the toxicity check (mostly the fifth day) where no day follows; animals may have died later. Schedule codes are those of the source, taken here to give the interval after Q, in days (D) or hours (H), and the number of doses after X. Some doses were run more than once; their values stand side by side, smallest first. Where survival is the endpoint, this PubChem deposit counts one and a half times the control or more as active, and values a quarter to a half above the control carry no call in these data; other NCI protocols may use other cut-offs. Residues, ends and D or L forms follow the SMILES beside them. *: point of attachment. Trt = c1ccc(C(c2ccccc2)(c2ccccc2)*)cc1; Bn = c1ccc(C*)cc1

System: Lewis lung carcinoma i.m., BDF1 mice, T/C %
Assay: NCI In Vivo Anticancer Drug Screen. Data for tumor model Lewis Lung Carcinoma (intramuscular) in B6D2F1 (BDF1) mice
How it was run: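 Mice carrying transplantable tumours received test compound. Survival or tumour size was recorded and expressed as the treated-group value (T) divided by the vehicle-treated control-group value (C).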

[1] = T/C endpoint: median survival time, dose: 4.0 mg/kg/injection, schedule: Q01DX009 (ip), vehicle: Klucel (hydroxypropylcellulose) (HPC), higher T/C = longer survival
[2] = T/C endpoint: median survival time, dose: 20.0 mg/kg/injection, schedule: Q01DX011 (ip), vehicle: saline, higher T/C = longer survival

## O=c1[nH]c(=O)n(C2CC(O)C(CO)O2)cc1C(F)(F)F (stereo unspecified)
T/C endpoint: median survival time, dose: 5.0 mg/kg/injection, schedule: Q01DX009 (ip), vehicle: saline, higher T/C = longer survival
  survivor count: 9 of 10
T/C endpoint: median survival time, dose: 20.0 mg/kg/injection, schedule: Q01DX011 (ip), vehicle: saline + alcohol, higher T/C = longer survival
  survivor count: 9 of 10
T/C endpoint: median survival time, dose: 20.0 mg/kg/injection, schedule: Q01DX012 (ip), vehicle: saline + alcohol, higher T/C = longer survival
  survivor count: 4 of 10
T/C endpoint: median survival time, dose: 40.0 mg/kg/injection, schedule: Q01DX009 (ip), vehicle: saline, higher T/C = longer survival
  survivor count: 9 of 10
T/C endpoint: median survival time, dose: 40.0 mg/kg/injection, schedule: Q01DX011 (ip), vehicle: saline + alcohol, higher T/C = longer survival
  survivor count: 10 of 10
T/C endpoint: median survival time, dose: 40.0 mg/kg/injection, schedule: Q01DX012 (ip), vehicle: saline + alcohol, higher T/C = longer survival
  survivor count: 10 of 10
T/C endpoint: median survival time, dose: 80.0 mg/kg/injection, schedule: Q01DX009 (ip), vehicle: saline, higher T/C = longer survival
  survivor count: 10 of 10
T/C endpoint: median survival time, dose: 80.0 mg/kg/injection, schedule: Q01DX011 (ip), vehicle: saline + alcohol, higher T/C = longer survival
  survivor count: 8 of 10
T/C endpoint: median survival time, dose: 80.0 mg/kg/injection, schedule: Q01DX012 (ip), vehicle: saline + alcohol, higher T/C = longer survival
  survivor count: 1 of 10
T/C endpoint: median survival time, dose: 160.0 mg/kg/injection, schedule: Q01DX009 (ip), vehicle: saline, higher T/C = longer survival
  survivor count: 10 of 10
T/C endpoint: median survival time, dose: 160.0 mg/kg/injection, schedule: Q01DX011 (ip), vehicle: saline + alcohol, higher T/C = longer survival
  survivor count: 0 of 10
T/C endpoint: median survival time, dose: 160.0 mg/kg/injection, schedule: Q01DX012 (ip), vehicle: saline + alcohol, higher T/C = longer survival
  survivor count: 5 of 10
T/C endpoint: median survival time, dose: 320.0 mg/kg/injection, schedule: Q01DX009 (ip), vehicle: saline, higher T/C = longer survival
  survivor count: 10 of 10
T/C endpoint: median survival time, dose: 320.0 mg/kg/injection, schedule: Q01DX011 (ip), vehicle: saline + alcohol, higher T/C = longer survival
  survivor count: 0 of 10
T/C endpoint: median survival time, dose: 320.0 mg/kg/injection, schedule: Q01DX012 (ip), vehicle: saline + alcohol, higher T/C = longer survival
  survivor count: 2 of 10

## CCN(CC)CCCC(C)Nc1c2ccccc2nc2c(Cl)cccc12 (stereo unspecified)
T/C endpoint: mean tumor weight (est.), dose: 60.0 mg/kg/injection, schedule: Q01DX011 (ip), vehicle: saline, higher T/C = larger tumour
  survivor count: 1 of 8

## COC(=O)CC(OC)c1nc(C(=O)OC)c(C)c(=O)[nH]1 (stereo unspecified)
[1]
  T/C: 138 % of control
T/C endpoint: median survival time, dose: 64.0 mg/kg/injection, schedule: Q01DX009 (ip), vehicle: Klucel (hydroxypropylcellulose) (HPC), higher T/C = longer survival
  T/C: 149 % of control

## CCCCCCCCCCCC[S+](C)C
T/C endpoint: median survival time, dose: 8.0 mg/kg/injection, schedule: Q01DX011 (ip), vehicle: saline, higher T/C = longer survival
  survivor count: 4 of 8
T/C endpoint: median survival time, dose: 16.0 mg/kg/injection, schedule: Q01DX011 (ip), vehicle: saline, higher T/C = longer survival
  survivor count: 0 of 8
T/C endpoint: median survival time, dose: 32.0 mg/kg/injection, schedule: Q01DX011 (ip), vehicle: saline, higher T/C = longer survival
  survivor count: 0 of 8

## O=C(O)CCCC1CCCCC1.[Cu+2]
T/C endpoint: mean tumor weight (est.), dose: 12.5 mg/kg/injection, schedule: Q01DX011 (ip), vehicle: saline with Tween-80, higher T/C = larger tumour
  survivor count: 5 of 8
T/C endpoint: median survival time, dose: 6.25 mg/kg/injection, schedule: Q01DX011 (ip), vehicle: saline with Tween-80, higher T/C = longer survival
  survivor count: 7 of 8
T/C endpoint: median survival time, dose: 12.5 mg/kg/injection, schedule: Q01DX011 (ip), vehicle: saline with Tween-80, higher T/C = longer survival
  survivor count: 5 of 8
T/C endpoint: median survival time, dose: 25.0 mg/kg/injection, schedule: Q01DX011 (ip), vehicle: saline with Tween-80, higher T/C = longer survival
  survivor count: 0 of 8
T/C endpoint: median survival time, dose: 50.0 mg/kg/injection, schedule: Q01DX011 (ip), vehicle: saline with Tween-80, higher T/C = longer survival
  survivor count: 0 of 8

## COC(=O)C(CSC(c1ccccc1)(c1ccccc1)c1ccccc1)NC(=O)C(CSCc1ccccc1)NC(C)=O (stereo unspecified) (Ac-Cys(Bn)-Cys(Trt)-OMe; configuration not given here)
[1]
  T/C: 148 % of control
T/C endpoint: median survival time, dose: 16.0 mg/kg/injection, schedule: Q01DX009 (ip), vehicle: Klucel (hydroxypropylcellulose) (HPC), higher T/C = longer survival
  T/C: 143 % of control

## Nc1ncn(C2OC(CO)C(O)C2O)c(=O)n1 (stereo unspecified)
T/C endpoint: mean tumor weight, dose: 0.75 mg/kg/injection, schedule: Q01DX011 (ip), vehicle: saline, higher T/C = larger tumour
  survivor count: 2 of 8
T/C endpoint: median survival time, dose: 0.19 mg/kg/injection, schedule: Q01DX011 (ip), vehicle: saline, higher T/C = longer survival
  survivor count: 6 of 8
T/C endpoint: median survival time, dose: 0.75 mg/kg/injection, schedule: Q01DX011 (ip), vehicle: saline, higher T/C = longer survival
  survivor count: 2 of 8
T/C endpoint: median survival time, dose: 0.8 mg/kg/injection, schedule: Q01DX011 (ip), vehicle: saline, higher T/C = longer survival
  T/C: 131 % of control
T/C endpoint: median survival time, dose: 1.5 mg/kg/injection, schedule: Q01DX011 (ip), vehicle: saline, higher T/C = longer survival
  survivor count: 0 of 8
T/C endpoint: median survival time, dose: 1.6 mg/kg/injection, schedule: Q01DX011 (ip), vehicle: saline, higher T/C = longer survival
  T/C: 131 and 142 % of control
T/C endpoint: median survival time, dose: 3.0 mg/kg/injection, schedule: Q01DX011 (ip), vehicle: saline, higher T/C = longer survival
  survivor count: 0 of 8
T/C endpoint: median survival time, dose: 3.2 mg/kg/injection, schedule: Q01DX011 (ip), vehicle: saline, higher T/C = longer survival
  survivor count: 7 of 10 and 10 of 10
T/C endpoint: median survival time, dose: 6.0 mg/kg/injection, schedule: Q01DX011 (ip), vehicle: saline, higher T/C = longer survival
  survivor count: 0 of 8

## CCCCCCCCCCCCCC[n+]1ccccc1
T/C endpoint: mean tumor weight (est.), dose: 0.5 mg/kg/injection, schedule: Q01DX011 (ip), vehicle: saline, higher T/C = larger tumour
  survivor count: 3 of 8
T/C endpoint: mean tumor weight (est.), dose: 1.0 mg/kg/injection, schedule: Q01DX011 (ip), vehicle: saline, higher T/C = larger tumour
  survivor count: 1 of 8
T/C endpoint: median survival time, dose: 0.5 mg/kg/injection, schedule: Q01DX011 (ip), vehicle: saline, higher T/C = longer survival
  survivor count: 3 of 8
T/C endpoint: median survival time, dose: 1.0 mg/kg/injection, schedule: Q01DX011 (ip), vehicle: saline, higher T/C = longer survival
  survivor count: 1 of 8

## O=C(Nc1ccc(C2=NCCN2)cc1)c1ccc(C(=O)Nc2ccc(C3=NCCN3)cc2)c(Cl)c1
T/C endpoint: median survival time, dose: 8.0 mg/kg/injection, schedule: Q01DX011 (ip), vehicle: water, higher T/C = longer survival
  survivor count: 8 of 8
T/C endpoint: median survival time, dose: 16.0 mg/kg/injection, schedule: Q01DX011 (ip), vehicle: water, higher T/C = longer survival
  survivor count: 4 of 8
T/C endpoint: median survival time, dose: 32.0 mg/kg/injection, schedule: Q01DX011 (ip), vehicle: water, higher T/C = longer survival
  survivor count: 3 of 8
T/C endpoint: median survival time, dose: 64.0 mg/kg/injection, schedule: Q01DX011 (ip), vehicle: water, higher T/C = longer survival
  survivor count: 0 of 8

## N=c1ccn2c(n1)OC1C(O)C(CO)OC12 (stereo unspecified)
T/C endpoint: mean tumor weight, dose: 800.0 mg/kg/injection, schedule: Q01DX011 (ip), vehicle: water, higher T/C = larger tumour
  survivor count: 5 of 8
T/C endpoint: median survival time, dose: 800.0 mg/kg/injection, schedule: Q01DX011 (ip), vehicle: water, higher T/C = longer survival
  survivor count: 5 of 8

## OC1CCCC2CCC[N-]C12.OC1CCCC2CCC[N-]C12.[O]=[V][OH] (stereo unspecified)
T/C endpoint: median survival time, dose: 50.0 mg/kg/injection, schedule: Q01DX011 (ip), vehicle: saline, higher T/C = longer survival
  survivor count: 0 of 8

## Nc1ncnc2c1ncn2C1OC(CO)C(O)C1O (stereo unspecified)
T/C endpoint: median survival time, dose: 600.0 mg/kg/injection, schedule: Q01DX011 (ip), vehicle: saline, higher T/C = longer survival
  survivor count: 7 of 8
T/C endpoint: median survival time, dose: 1200.0 mg/kg/injection, schedule: Q01DX011 (ip), vehicle: saline, higher T/C = longer survival
  survivor count: 0 of 8

## FC(F)(F)c1ccc(-c2ccc(OCCN3CCCC3)cc2)cc1
T/C endpoint: mean tumor weight, dose: 12.5 mg/kg/injection, schedule: Q01DX011 (ip), vehicle: saline, higher T/C = larger tumour
  survivor count: 5 of 8
T/C endpoint: median survival time, dose: 12.5 mg/kg/injection, schedule: Q01DX011 (ip), vehicle: saline, higher T/C = longer survival
  survivor count: 5 of 8

## CN(C)C(=O)c1cccc(COc2ccc(N3C(N)=NC(N)=NC3(C)C)cc2Cl)c1
T/C endpoint: mean tumor weight, dose: 6.25 mg/kg/injection, schedule: Q01DX011 (ip), vehicle: saline, higher T/C = larger tumour
  survivor count: 4 of 8
T/C endpoint: median survival time, dose: 6.25 mg/kg/injection, schedule: Q01DX011 (ip), vehicle: saline, higher T/C = longer survival
  survivor count: 4 of 8
T/C endpoint: median survival time, dose: 25.0 mg/kg/injection, schedule: Q01DX011 (ip), vehicle: saline, higher T/C = longer survival
  survivor count: 0 of 8

## CCCCn1cnc2c(N)ncnc21
T/C endpoint: mean tumor weight (est.), dose: 100.0 mg/kg/injection, schedule: Q01DX011 (ip), vehicle: saline with Tween-80, higher T/C = larger tumour
  survivor count: 5 of 8
T/C endpoint: median survival time, dose: 100.0 mg/kg/injection, schedule: Q01DX011 (ip), vehicle: saline with Tween-80, higher T/C = longer survival
  survivor count: 5 of 8

## CS(=O)(=O)OCCCNCCCOS(C)(=O)=O
[2]
  T/C: 131 % of control
  survivor count: 7 of 8
T/C endpoint: median survival time, dose: 40.0 mg/kg/injection, schedule: Q01DX011 (ip), vehicle: saline, higher T/C = longer survival
  survivor count: 10 of 10
T/C endpoint: median survival time, dose: 80.0 mg/kg/injection, schedule: Q01DX011 (ip), vehicle: saline, higher T/C = longer survival
  survivor count: 0 of 10, 0 of 8, 7 of 10
T/C endpoint: median survival time, dose: 160.0 mg/kg/injection, schedule: Q01DX011 (ip), vehicle: saline, higher T/C = longer survival
  survivor count: 0 of 10

## CC(C)S(=O)(=O)/C(Cl)=C(/Cl)C(Cl)=C(Cl)Cl
T/C endpoint: mean tumor weight, dose: 200.0 mg/kg/injection, schedule: Q01DX011 (ip), vehicle: sodium bicarbonate, higher T/C = larger tumour
  survivor count: 2 of 8
T/C endpoint: median survival time, dose: 25.0 mg/kg/injection, schedule: Q01DX011 (ip), vehicle: sodium bicarbonate, higher T/C = longer survival
  survivor count: 6 of 8
T/C endpoint: median survival time, dose: 100.0 mg/kg/injection, schedule: Q01DX011 (ip), vehicle: sodium bicarbonate, higher T/C = longer survival
  survivor count: 6 of 8
T/C endpoint: median survival time, dose: 200.0 mg/kg/injection, schedule: Q01DX011 (ip), vehicle: sodium bicarbonate, higher T/C = longer survival
  survivor count: 2 of 8
